# Experimental data: PubChem BioAssay AID1794845 (National Center for Advancing Translational Sciences (NCATS), 2023)
# Amino acid sequences for entries named in this document (tags omitted). A change or cut given only in a name is not applied to a line headed by its entry.
# UniProt C7C422: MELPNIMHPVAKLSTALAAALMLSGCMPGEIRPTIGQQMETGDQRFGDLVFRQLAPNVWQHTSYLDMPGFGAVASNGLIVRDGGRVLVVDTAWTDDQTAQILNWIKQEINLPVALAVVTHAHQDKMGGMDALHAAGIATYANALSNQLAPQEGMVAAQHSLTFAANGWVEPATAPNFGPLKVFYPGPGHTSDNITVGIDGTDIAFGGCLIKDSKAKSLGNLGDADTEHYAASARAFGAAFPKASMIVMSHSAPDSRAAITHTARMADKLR
# The whole screen tested about 6,900 compounds, of which fewer than 10 were called active. The call rests on the fitted dose curve; in most records, active means well fitted curve in the direction sought with a large enough effect; inconclusive means small, poorly fitted or top-dose-only effect, or another doubt; inactive means no such curve, though single readings can be large or run the other way. The list shows a part of the results.
# Target: Metallo-beta-lactamase type 2 (Klebsiella pneumoniae) (UniProt C7C422)
# Assay: qHTS to identify inhibitors of the New Delhi Metallo-beta-lactamase (NDM): primary screen against the NCATS Gemini Collection; further: % of control where 0% means no effect
# Conditions: NDM-1 enzyme, meropenem hydrolysis, absorbance 300 nm; at 38.4 µM (top of the series) unless noted
# Method in brief: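 Meropenem hydrolysis (50 uM final) by 2 nM NDM-1 read as 300 nm absorbance after 30 min, following >30 min compound–enzyme preincubation in HEPES pH 7.0 with 1 uM ZnSO4 and 0.01% Tween20.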
row,Structure (SMILES),activity % (negative = inhibition)
1,CC(C)(C)CC(=O)NC[C@H]1OC[C@@H](NC2CCCC2)[C@@H]1O,inactive: -1.93% [at 57.5 µM]
2,CCS(=O)(=O)N1C[C@@H]2CN(Cc3ncc[nH]3)C[C@]2(C(=O)O)C1,inactive: -7.35%
3,Cn1cccc1C(=O)N1CC(CO)C2(CCNCC2)C1 (configuration not stated),inactive: 31.5%
4,CN1CCC(C(=O)N2CCC3(CC2)CN(C(=O)c2ccc(Cl)cc2)CCO3)CC1,inactive: -11.6%
5,COC(=O)NCCNC(=O)c1cccc(-c2ccc(SC)cc2)c1,inactive: 6.72%
6,COc1ccccc1N1CCN(C(=O)C[C@@H]2C[C@@H](C(C)C)[C@H](CO)C=C2C)CC1,inactive: 5.32% [at 57.5 µM]
7,CN1CC(=O)N(C2CCCC2)Cc2c(NC3CCCC3)ncnc21,inactive: 0.231% [at 57.5 µM]
8,CCNc1ncc(C(=O)NC2CC(c3nnc(CO)n3CC)C2)cn1 (configuration not stated),inactive: 5.26%
9,COc1cccc(CN2C[C@@H]3C(C(=O)O)[C@@H]3C2)c1OCCn1ccnc1 (some centres not stated),inactive: -2.15%
10,COc1ccc([C@H]2CN(C(=O)C3(c4ccc(F)cc4)CC3)C[C@@H]2N)cc1,inactive: -16.7%
11,COCCn1c(C)cnc1C1CCN(S(=O)(=O)c2ccc(C#N)cc2)C1 (configuration not stated),inactive: -6.01%
12,O=c1c2nc(Nc3cccnc3)ccc2ncn1-c1ccc(F)cc1F,inactive: 17.4% [at 57.5 µM]
13,O=C1CCCCC(C(=O)N2CCCCC2)N1 (configuration not stated),inactive: -11.9%
14,COC(=O)[C@@H](Cc1cccnc1)NC(=O)[C@@H]1CN(C(=O)c2cccc(F)c2)CCN1C(=O)C1CCCCC1,inactive: -0.572%
15,COc1ccc(CCN2CC(NC(=O)Cn3ccc(C)n3)CC2=O)cc1 (configuration not stated),inactive: -4.85%
16,Cc1nn(CCO)cc1CN1CCC2(CC1)C(C(=O)O)CC(=O)N2C (configuration not stated),inactive: -1.69%
17,N#Cc1ccc(CN2CCC3(CC(c4cccc(C(F)(F)F)c4)=NO3)C2)cc1 (configuration not stated),inactive: -0.427%
18,Cc1ccc(OCC(=O)NCc2c(C)ncc3c2CCNC3)cc1C,inactive: 22.7%
19,O=C(Nc1ccc(=O)n2c1[C@@H]1C[C@@H](CN(C(=O)COc3ccccc3)C1)C2)c1ccccc1,inactive: -0.063%
20,Cc1cnc(CCNC(=O)c2ccc(C#N)cc2)n1C1CC1,inactive: 13.1%
21,COc1ccccc1OC1(C(=O)O)CCN(c2ncnc(C)c2C)CC1,inactive: -5.13%
22,CN(Cc1ccc2nsnc2c1)Cc1cc2n(n1)CCCNC2,inactive: -6.61%

# Six compounds out of the list, ordered by count of non-hydrogen atoms, descending:
row,Structure (SMILES),activity % (negative = inhibition)
4,CN1CCC(C(=O)N2CCC3(CC2)CN(C(=O)c2ccc(Cl)cc2)CCO3)CC1,inactive: -11.6%
17,N#Cc1ccc(CN2CCC3(CC(c4cccc(C(F)(F)F)c4)=NO3)C2)cc1 (configuration not stated),inactive: -0.427%
9,COc1cccc(CN2C[C@@H]3C(C(=O)O)[C@@H]3C2)c1OCCn1ccnc1 (some centres not stated),inactive: -2.15%
7,CN1CC(=O)N(C2CCCC2)Cc2c(NC3CCCC3)ncnc21,inactive: 0.231% [at 57.5 µM]
20,Cc1cnc(CCNC(=O)c2ccc(C#N)cc2)n1C1CC1,inactive: 13.1%
3,Cn1cccc1C(=O)N1CC(CO)C2(CCNCC2)C1 (configuration not stated),inactive: 31.5%

# Next part:

row,Structure (SMILES),activity % (negative = inhibition)
1,O=C1CCC2(CNC(=O)c3cc(F)ccc3F)CCC=C2N1 (configuration not stated),inactive: -4.1%
2,O=C(c1ccc(Cl)cc1)N1CC2(CCN(CC3CC3)CC2)Cc2ccccc21,inactive: 16.5%
3,COc1cc([C@@H]2c3cc4c(cc3[C@H](O)[C@@H](CO)[C@@H]2C(=O)NC(C)C)OCO4)cc(OC)c1OC,inactive: 6.22%
4,CCc1cn(C[C@@H](C(=O)O)N(CC)CC)c(=O)[nH]c1=O,inactive: 3.66% [at 77.1 µM]
5,Cc1cc(C)cc(N2CCN(c3cc(C4CC(O)C4)ncn3)CC2=O)c1 (configuration not stated),inactive: 7.03%
6,CCn1cc(S(=O)(=O)N2CCOc3ccc(CN4CCCCCC4)cc3C2)cn1,inactive: 5.62%
7,Cc1ccc2oc([C@H]3CCN(C(=O)C4CC4)C3)nc2c1,inactive: 3.81% [at 77.1 µM]
8,COC[C@@H]1CCCN1Cc1cc2cc3c(cc2[nH]c1=O)OCO3,inactive: 18.3%
9,COc1cccc(CCC(=O)N2CCCC(CN3CCCC3)CC2)c1 (configuration not stated),inactive: 14.9%
10,COc1ccc(F)c(CN2CCC3(CCC(=O)N(CCO)C3)CC2)c1,inactive: -2.65%
11,OCC1(Cc2ccc(F)cc2F)CCCN(c2cnc3ccccc3n2)C1 (configuration not stated),inactive: -0.375%
12,Cc1nnc(CNC(=O)C2CCC(=O)N(CCN3CCOCC3)C2)o1 (configuration not stated),inactive: 2.8%
13,COc1ccc(-c2nc3c(c(=O)[nH]2)CCN(S(=O)(=O)C2CC2)C3)cc1,inactive: 10.7%
14,O=C(Nc1ccc(N2CCC(NC3Cc4ccccc4C3)CC2)cc1)C1CCCC1,inactive: 8.01%
15,OC[C@@H]1CN(Cc2cccnc2)C[C@H]1c1ccccn1,inactive: 10%
16,Cc1ccc(CNC(=O)N(C)CC2CCOCC2)cc1,inactive: -0.782%
17,Cc1nc2ccc(C(=O)NC(C(=O)O)c3c(C)n[nH]c3C)cc2[nH]1 (configuration not stated),inactive: 10.8%
18,O=C(N[C@@H]1CCOC[C@H]1OCCO)c1ccc2c(c1)ncn2CCO,inactive: 2%
19,O=C(N[C@@H]1CN(Cc2ccccc2)C[C@H]1CO)c1cn[nH]c1,inactive: 17.1%
20,Cc1noc(C)c1CC(=O)N1CCCn2cc(-c3ccccc3F)nc21,inactive: 3.8%
21,Cc1ccc(NC(=O)N2CCN(c3nnnn3-c3ccccc3)CC2)cc1,inactive: 0.0539%
22,CC[C@H]1CN(C(=O)C(C)(C)C)CC[C@H]1CC(=O)NCc1cccnc1,inactive: 2.92% [at 57.5 µM]

row,Structure (SMILES),activity % (negative = inhibition)
1,COc1ccccc1-c1ccc(C(=O)N2CCC(C(=O)Nc3ccccc3Cl)CC2)cc1,inactive: -5.41%
2,O=C(Cc1ccc(F)cc1)NCc1nnc2ccc(-c3ccc(Cl)cc3)nn12,inactive: 33.5%
3,Cc1nnc2n1CCC(N(C)C(=O)NC1CCCCC1)CC2 (configuration not stated),inactive: 8.88%
4,O=C1CO[C@H]2CN(Cc3ccc4c(c3)OCO4)C[C@H]2N1Cc1ccc(F)cc1,inactive: 2.35% [at 57.5 µM]
5,Cn1nc2n(c1=O)CCN(C(=O)c1ccc(F)cc1F)CC2,inactive: -1.76%
6,O=C1NC2(CCN([S+](=O)([O-])c3cccc(C(F)(F)F)c3)C2)COc2ccccc21 (configuration not stated),inactive: 3.97%
7,COCc1nc(NCCc2nc(-c3ccccn3)no2)c2cnn(C)c2n1,inactive: 5.88%
8,O=C(NCc1ccc(Cl)nc1)c1cc2cccnn2n1,inactive: 27.8% [at 57.5 µM]
9,COCC1CN(C2CCC2)CC12CCN(C(=O)c1ccsc1)CC2 (configuration not stated),inactive: -3.61%
10,COc1ccc(-c2[nH]nc3ncc(C(=O)N4CCC(c5ccccc5)CC4)nc23)c(C)c1,inactive: 5.82% [at 57.5 µM]
11,COc1cccc(-c2ccc(C(=O)N3CCC(NC(=O)c4ccc(C(F)(F)F)cc4)CC3)cc2)c1,inactive: 2.93%
12,COc1ccc(NC(=O)N2C[C@@H]3C[C@H](C2)c2c(NC(=O)C4CCCCC4)ccc(=O)n2C3)cc1,inactive: 3.88%
13,CCOc1ccccc1CN1CCC[C@H]1C(=O)N1CCCCCCNC(=O)CC1,inactive: 9.08%
14,O=C(CC1CC1)N1C[C@H]2OC(=O)N(CCc3cccc(Cl)c3)[C@H]2C1,inactive: 4.36%
15,O=C(c1n[nH]c2ccccc12)N1CCC(N2C(=O)C(OCC3CC3)C23CCCCC3)CC1 (configuration not stated),inactive: 23.8%
16,CNC(=O)[C@@H]1CN(C(=O)NCc2ccc(C)cc2)C[C@H]1c1nc(C)no1,inactive: -10.1%
17,Cc1cncc(C(=O)NC2CCN(c3ccc(=O)n(C)n3)CC2)c1,inactive: 5.24%
18,O=C(Nc1ccc2ncnc(N3CCCCC3)c2c1)C1CCCCC1,inactive: 2.61%
19,COc1ccccc1CNC(=O)CN1CCCC(CO)(CC2CC2)C1 (configuration not stated),inactive: -1.67%
20,NCc1ccc(Oc2ccc(F)c(Cl)c2)cc1,inactive: -3.16% [at 57.5 µM]
21,Cc1noc(C)c1C(=O)N1CCN(S(=O)(=O)c2ccc(Cl)nc2)C(=O)C1,inactive: 4.38%
22,Cc1[nH]c(-c2ccccc2)nc1C(=O)N1CCCC[C@H](N(C)C)C1,inactive: 1.85%

row,Structure (SMILES),activity % (negative = inhibition)
1,CC(C)CN(CC1CN(C(=O)c2ccccc2)CCO1)C(=O)c1cccc2ccccc12 (configuration not stated),inactive: -5.47%
2,Cc1noc2c(NCCCn3ccnc3)cc(-c3ccccn3)nc12,inactive: 47% [at 57.5 µM]
3,COCCN1CC(C(=O)NCc2sc3ccccc3c2Cl)CCC1=O (configuration not stated),inactive: 9.65%
4,CN1CCN(S(=O)(=O)c2cc(C(=O)O)cc(-c3ccncc3)c2)CC1,inactive: 1.21%
5,Cc1nn(-c2ccccc2)c2c1C(C(C)C)N(C1CN([S+](C)(=O)[O-])C1)C2=O (configuration not stated),inactive: -10.6%
6,Cn1ccnc1C(O)c1cc2n(n1)CCN(S(=O)(=O)C1CC1)C2 (configuration not stated),inactive: 19%
7,COc1ccc(C2(C(=O)N3CCCCCC3c3nc(C4CC4)no3)CC2)cc1 (configuration not stated),inactive: 1.06%
8,CCN(Cc1ccccc1)C(=O)CCC[C@H]1NC[C@@H]2CC1CN(Cc1ccccc1)C2,inactive: -1.84%
9,O=C(CCc1cc2n(n1)CCCN(C(=O)CCc1ccsc1)C2)NC1CC1,inactive: 20.8%
10,C[C@@H]1CN(c2nc(-c3ccccc3)no2)CC[C@@]1(O)C1CCC1,inactive: 76%
11,O=C(CCc1ccsc1)N1CCC2(CCCN(Cc3cccnc3)C2=O)C1 (configuration not stated),inactive: -2.26%
12,O=c1cc(N2CCOCC2)oc2c(NCc3ccc(F)cc3)nccc12,inactive: 16.3% [at 57.5 µM]
13,O=C(NC1CC1)[C@@H]1C[C@H](Oc2ccccc2)CN1C(=O)C1CCC1,inactive: 0.0788%
14,Cc1cnc(CCNC(=O)C2CC=CC2)n1C1CC1,inactive: 9.89%
15,c1ncc(CN2CCn3c(nnc3C3CCCNC3)C2)s1 (configuration not stated),inactive: 47.9%
16,COC1CCC12CCN(Cc1ccc(C)s1)CC2 (configuration not stated),inactive: -1.23%
17,CN(C)[C@@H]1CO[C@H](CNC(=O)N2CCOCC2)[C@H]1O,inactive: 6.03% [at 77.1 µM]
18,O=C1c2c(-c3nc(-c4ccsc4)no3)nnn2CCN1Cc1cccc(Cl)c1,inactive: -1.11%
19,COc1ccc(CNC(=O)c2ccc3nnc(C4CCOCC4)n3c2)cc1,inactive: -0.0669%
20,c1ccc(OCc2noc(-c3ccc(NC4CCSC4)nc3)n2)cc1 (configuration not stated),inactive: 31.4%
21,COc1ccc(NC(=O)C(C)(C)Oc2nn(CC3CC3)c3ccc(CN4CCCC4)cc23)cc1,inactive: 2.89%
